Experimental data: patent US20230313199A1 (published 2023)

Target: T1, HA-tagged murine MFSD7C (mouse, UniProt Q91X85 1-551)
T1 construct: Expressed by transfection in 293FT / HEK 293T cells; also called HA-MFSD7C; pCMV6-AN-3HA-MFSD7C; not shown: N-terminal HA tag from vector pCMV6-AN-3HA
T1 sequence (looked up): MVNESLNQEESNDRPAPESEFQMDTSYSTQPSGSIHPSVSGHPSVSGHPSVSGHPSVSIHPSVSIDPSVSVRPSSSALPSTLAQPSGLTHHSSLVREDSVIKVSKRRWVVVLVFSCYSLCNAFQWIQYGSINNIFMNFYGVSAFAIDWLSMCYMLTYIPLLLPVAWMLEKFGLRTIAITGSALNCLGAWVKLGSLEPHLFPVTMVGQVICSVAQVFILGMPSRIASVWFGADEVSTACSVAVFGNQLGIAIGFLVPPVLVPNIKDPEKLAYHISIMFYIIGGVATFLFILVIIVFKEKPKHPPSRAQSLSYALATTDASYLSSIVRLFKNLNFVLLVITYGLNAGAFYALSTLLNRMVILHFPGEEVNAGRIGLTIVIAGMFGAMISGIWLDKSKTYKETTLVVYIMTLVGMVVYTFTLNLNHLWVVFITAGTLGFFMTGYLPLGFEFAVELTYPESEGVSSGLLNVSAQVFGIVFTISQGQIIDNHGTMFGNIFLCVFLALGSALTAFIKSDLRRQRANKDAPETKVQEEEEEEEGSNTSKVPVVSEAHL
Experiment: co-IP and Western blot, co-transfected 293FT cells, without heme (less or very little with 10 or 40 µM heme)
Method: Co-transfection and immunoprecipitation. For co-IP, HA-tagged MFSD7C was co-transfected with FLAG-tagged HMOX1 (Origene Catalog No. MR203944), CYC1, COX4I1, NDUFA4, ATP5h, ATP5c1 into 293FT cells using TransIT®-LT1 Transfection Reagent (Mirus). Thirty-six hours after transfection, the cells were lysed using cold Lysis Buffer containing 20 mM Tris-HCl (pH 7.4), 150 mM NaCl, 0.1% NP-40, 10% glycerol, proteinase inhibitor (Sigma Catalog No. 4693132001), and phosphatase inhibitors (Sigma Catalog No. 4906845001). The clear supernatants from the lysate were incubated with M2-magnetic beads conjugated with anti-FLAG antibody (Sigma Catalog No. M8823) for 2 hours at 4° C. Then the beads were washed twice and eluted by the 3× FLAG peptides (Sigma Catalog No. F4799).
To determine the effect of heme on MFSD7C interactions with ETC components, HMOX1 or SERCA2b, 293FT cells were transiently transfected with HA-tagged murine MFSD7C and FLAG-tagged murine CYC1, NDUFA4, COX4i1, ATP5h, ATP5c1, HMOX1 or SERCA2b. 35 hrs later, co-transfected cells were incubated with DMSO (vehicle) or 10 μM or 40 μM of heme for one hour before lysis. Cell lysates were precipitated with anti-HA antibody, eluted with HA peptide, further precipitated with anti-FLAG antibody, eluted with FLAG peptide, and then subjected to Western blotting with anti-HA and anti-FLAG antibodies. […]

binding result: binds
B1: FLAG-tagged murine COX4I1 (other, mouse, UniProt P19783 23-169, looked up)
chain: AHGSVVKSEDYAFPTYADRRDYPLPDVAHVTMLSASQKALKEKEKADWSSLSRDEKVQLYRIQFNESFAEMNRGTNEWKTVVGMAMFFIGFTALVLIWEKSYVYGPIPHTFDRDWVAMQTKRMLDMKANPIQGFSAKWDYDKNEWKK
notes: Complex IV component; expressed by transfection; also called pCMV6-AC-DDK-Cox4i1; not shown: C-terminal FLAG (DDK) tag
